# Laboratory results taken from PubChem BioAssay AID2685 (National Center for Advancing Translational Sciences (NCATS), 2010).
# Some of the results follow. These are further read-outs of the screen, such as a control signal, another cell line or another target. No call is given for them. The list favours compounds with an active or inconclusive main result. Potencies come from curve fits of mixed quality, noted in brackets.
# Assay: qHTS Assay for Lipid Storage Modulators in Drosophila S3 Cells;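 for cell number change: cells counted by Cell Tracker Red CMTPX staining in the red channel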
# Conditions: BODIPY lipid droplet fluorescence, 18-24 h; for cell number change: measured here: cell count max response, cells fed with added oleic acid
# How it was run: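 Laser-scanning cytometry quantifies lipid droplet accumulation (500–530 nm total intensity; droplet/cell object ratio) in oleic acid-fed (400 uM added) Drosophila S3 cells treated with a concentration series. 20 uM Triacsin C defined 100% inhibition.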
# [1] = measured here: lipid fluorescence (Fed channel) AC50, cells fed with added oleic acid
# [2] = measured here: cell number channel AC50, cells fed with added oleic acid
Compound,cell number change [%],AC50 [1],AC50 [2]
O=C(Cn1nc(-c2cccs2)ccc1=O)Nc1ccc(Br)cc1,-25,–,–
Cc1ccc(C)c(NC(=S)NNc2ccc(F)cc2F)c1,4.17,"6.51 µM [rising, single point]",–
COc1cc(-c2nnc3n2CCCCC3)cc(OC)c1OC,-0.551,"6.51 µM [falling, single point]",–
O=C1C(=O)c2c(C(=O)c3ccccc3)coc2-c2ccccc21,-76.3,"0.206 µM [falling, full curve, poor fit]","18.4 µM [falling, single point]"
CC1(C)CC(=O)c2cc(C(=O)NC3CCSC3=O)c(=O)n(-c3ccc(Cl)cc3)c2C1 (stereo unspecified),–,"23.1 µM [rising, single point]","6.51 µM [rising, single point]"
Cc1ccc(CCNC(=O)CC(C)CC2=NS(=O)(=O)c3ccccc3N2)cc1 (stereo unspecified),–,"10.3 µM [rising, partial curve]",–
CCOC(=O)c1cnc2ccc(OCC)cc2c1NCCCN1CCOCC1,-38.1,"1.03 µM [falling, partial curve]","8.2 µM [falling, partial curve]"
CCN(CC)c1ccc(/C=N/NC(=O)c2ccoc2C)c(O)c1,-34.8,"18.4 µM [falling, single point]","8.2 µM [falling, single point]"
CCC(C)(C)n1nnnc1CN1CCc2ccccc21,51.8,–,"16.4 µM [rising, single point]"
CCOC(=O)CC(=O)CSc1ncnc2c1cnn2-c1ccccc1,-18.4,"6.51 µM [rising, single point]",–
Cc1ccc(/C=N/NC(=O)c2cc(C3CC3)nc3ccccc23)o1,-31.1,–,"0.0058 µM [falling, full curve, poor fit]"
O=S(=O)(NCc1ccco1)N1CCOCC1,1.6,"0.00517 µM [falling, full curve, poor fit]",–
COc1ccc(CCNC(=O)CSCc2ccc(Br)cc2)cc1OC,-27,"29.1 µM [falling, single point]",–
COCCCNc1nc2c(c(=O)[nH]c(=O)n2C)n1CC(O)COc1ccccc1C (stereo unspecified),-29.6,"3.66 µM [falling, full curve]","0.103 µM [falling, full curve, poor fit]"
O=C(CC(c1ccccc1)c1ccccc1)Nc1ccc(Cl)cn1,60.7,"2.06 µM [rising, partial curve]","1.3 µM [rising, full curve]"
Cc1nc(C)c(C(=O)N2CCCC(C(=O)c3ccc4ccccc4c3)C2)s1 (stereo unspecified),-47.5,"29.1 µM [falling, single point]","29.1 µM [falling, single point]"
Cc1nc2nc(C)c(CCC(=O)N3CCN(c4ccccc4)CC3)c(C)n2n1,–,"0.731 µM [rising, single point]","1.84 µM [rising, partial curve]"
N#CC1=C(S)N=C(N)C(c2nc(-c3ccccc3)cs2)C12CCCCC2 (stereo unspecified),–,–,"2.59 µM [rising, partial curve, poor fit]"
Cc1cc(C(=O)Nc2ccccc2C(=O)O)ccc1NC(=O)COc1ccccc1Cl,21.1,"8.2 µM [rising, partial curve]",–
CC(C)c1ccc(NS(=O)(=O)c2ccc(Cl)nc2)cc1,-34.5,"29.1 µM [falling, single point]","32.6 µM [falling, single point]"
CCN(CC)CCCNC(=O)c1ccc(S(=O)(=O)Nc2ccc(C)c(C)c2)cc1,1.3,"6.51 µM [falling, partial curve, poor fit]",–
Cc1ccccc1NC(=O)COc1ccc(Br)cc1CNCCCO,-0.673,–,–
COc1ccc(C)cc1NC(=O)COC(=O)CCC(=O)c1cccs1,13.2,"4.11 µM [rising, full curve, poor fit]",–
Cc1ccccc1-c1noc(-c2ccc(O)cc2)n1,-63,"13 µM [falling, partial curve]","13 µM [falling, partial curve]"
O=C(NCC1CCCO1)c1ccccc1NC(=O)c1cccc2ccccc12 (stereo unspecified),-12.5,"29.1 µM [falling, partial curve, poor fit]","0.13 µM [rising, full curve, poor fit]"
Cc1cc(C)nc(NC(=O)C(c2ccccc2)c2ccccc2)c1,37.7,"9.2 µM [rising, partial curve]","6.51 µM [rising, partial curve]"
CCOP(=O)(c1ccccc1)c1nc(-c2ccccc2C)oc1N1CCCCC1 (stereo unspecified),-48.1,–,"29.1 µM [falling, single point]"

Compound,cell number change [%],AC50 [1],AC50 [2]
Cn1c(CNc2ccccc2)nc2ccccc21,-31.8,"0.58 µM [rising, full curve, poor fit]","5.8 µM [falling, partial curve]"
CCCC(C(=O)n1nc(C)cc1C)C(NS(=O)(=O)c1ccc(C)cc1)c1ccccc1 (stereo unspecified),-44.7,"1.84 µM [rising, partial curve, poor fit]","25.9 µM [falling, partial curve, poor fit]"
O=c1cc(-c2ccc(O)c(-c3c(O)cc(O)c4c(=O)cc(-c5ccc(O)cc5)oc34)c2)oc2cc(O)cc(O)c12,-12.9,"0.013 µM [rising, full curve, poor fit]",–
Cc1ccccc1C(=O)NCCCCc1ccccc1,5.41,"8.2 µM [rising, partial curve]",–
Cc1ccc(N2C(=O)c3ccccc3C2C(=O)c2ccc(O)cc2O)cc1 (stereo unspecified),5.06,"0.731 µM [falling, full curve, poor fit]",–
CCC(Cc1ccccc1)NC(=O)C1=C(C)C(=O)OC12CCC(C)CC2 (stereo unspecified),-30.6,"1.64 µM [falling, partial curve, poor fit]","0.411 µM [falling, full curve]"
CC(C)C[C@H]1CN=C(N(C)C)N1CCCCc1ccccc1,17.4,"18.4 µM [rising, single point]",–
Cc1ccc2nc3c(cc(C#N)c(=O)n3CC3CCCO3)c(=O)n2c1 (stereo unspecified),2.71,"3.26 µM [rising, single point]",–
O=C(c1ccc(N2CCN(C(=O)c3ccc(F)c(F)c3)CC2)cc1)c1cccc(F)c1,11.4,–,–
COc1ccc(-c2nnn(CC(=O)N(CC(=O)NC3CCCC3)Cc3ccco3)n2)cc1OC,-29.5,"23.1 µM [falling, single point]",–
CCOc1ccccc1CN1C(=O)NC2(CCCCCC2)C1=O,–,"29.1 µM [falling, single point]",–
O=C(CSC1=NCCS1)NCc1ccco1,-12.5,"25.9 µM [falling, partial curve]",–
COc1cc(/C=C/c2cc(OC(C)=O)c3ccccc3n2)c(OC(C)=O)c([N+](=O)[O-])c1,-38.4,"3.66 µM [falling, full curve]","3.26 µM [falling, full curve]"
Cc1cc(C)n(CCc2nc(-c3ccc(-c4ccccc4)cc3)cs2)n1,–,"1.84 µM [rising, partial curve]",–
CSc1nc2ccc(NC(=O)c3ccc(=O)n(C)n3)cc2s1,93.8,"5.17 µM [falling, single point]","6.51 µM [falling, single point]"
CCOCCc1nnc(NC(=O)Cc2ccc(Br)cc2)s1,–,"1.3 µM [rising, partial curve]","2.06 µM [rising, partial curve]"
Cn1c(SCc2ccc([N+](=O)[O-])cc2)nc2c(c1=O)SCC2,-15.3,–,–
CC1CCCCC1NC(=O)Cn1c(=O)oc2cc(S(=O)(=O)N3CCCC3)ccc21 (stereo unspecified),12,"0.092 µM [falling, full curve, poor fit]",–
CCN1CC2=C(OC(N)=C(C#N)C2c2cccs2)/C(=C\c2cccs2)C1 (stereo unspecified),–,"1.46 µM [rising, partial curve]","2.91 µM [rising, partial curve, poor fit]"
Brc1ccccc1-c1nnc(COc2cccc3cccnc23)o1,44.8,"11.6 µM [rising, partial curve]","5.8 µM [rising, partial curve, poor fit]"
COc1ccc(-c2n[nH]c(=S)o2)c(OC)c1,14.3,"29.1 µM [rising, single point]",–
COc1ccc(CCNc2nc(-c3sc(C)nc3C)cs2)cc1OC,-60.9,"1.16 µM [rising, full curve]","20.6 µM [falling, partial curve]"
COc1ccccc1C(=O)NC(CCSC)C(=O)NCC(c1ccccc1OC)N1CCCC1 (stereo unspecified),0.962,"0.0731 µM [falling, full curve, poor fit]",–
CCC(C)(C)n1nnnc1C(c1ccc(OC)cc1)N1CCN(C(=O)c2ccco2)CC1 (stereo unspecified),9.17,–,–
COC(=O)c1cc(C(=O)OCC(=O)NNC(=O)c2cccs2)cc([N+](=O)[O-])c1,74.3,–,"9.2 µM [rising, partial curve]"
O=C(NNS(=O)(=O)c1ccc(Br)cc1)c1csnn1,-17.8,–,"0.00651 µM [falling, full curve, poor fit]"
COc1ccc(CNC(=O)c2cc3cccc(O)c3oc2=N)cc1,-0.862,"4.61 µM [falling, full curve, poor fit]",–

# One compound at a time (already shown). Order of values: cell number change [%]	AC50 [1]	AC50 [2]
# CC(C)C[C@H]1CN=C(N(C)C)N1CCCCc1ccccc1 is listed with 17.4	18.4 µM [rising, single point]	–
# CCCC(C(=O)n1nc(C)cc1C)C(NS(=O)(=O)c1ccc(C)cc1)c1ccccc1 (stereo unspecified) is listed with -44.7	1.84 µM [rising, partial curve, poor fit]	25.9 µM [falling, partial curve, poor fit]
